Experimental data as given in PubChem BioAssay AID1347075 (National Center for Advancing Translational Sciences (NCATS), 2019).
Hit rate of the full screen: of about 400,000 compounds, about 5,500 (1.4%) were called active. The inconclusive results got no clear call from the source; some entries with a clear call stand among them for comparison. Calls follow the shape of the dose curve; as a rule, active = well fitted cell-killing curve with a large enough effect; inconclusive = small, poorly fitted or top-dose-only effect, or effect the other way; inactive = flat fitted curve, though single readings scatter. Potencies of inconclusive entries are doubtful fits and often do not repeat.

test: qHTS assay for MDR1-selective chemotherapeutics: Primary screen using the parental adenocarcinoma cell KB-3-1; settings: KB-3-1 viability, CellTiter-Glo ATP luminescence, 72 h; activity change, negative = cytotoxic: at 46.1 µM (top of the series); also: nearly all actives have a fitted effect of over 60% in size
Outline: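 72 h, 37 °C compound treatment of KB-3-1 parental cells; CellTiter-Glo added, 10 min, luminescence read. Data corrected against DMSO-only plates and normalized before curve fitting.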
% is scaled to controls: 0 for no effect and ±100 for the full control effect; potency is read from the fitted curve at half-maximal effect.

| Compound | Potency | activity change, negative = cytotoxic |
| --- | --- | --- |
| C=C1CCC[C@]2(C)C[C@H]3OC(=O)C(CNC(C)(CO)CO)[C@H]3CC12 (some centres not stated) | inconclusive: 20.6 µM [cytotoxic, single point] | – |
| COc1ccccc1N(C1=NCCCS1)S(=O)(=O)c1ccc(C(C)(C)C)cc1 | inconclusive: 18.4 µM [cytotoxic, partial curve, poor fit] | – |
| O=C(CNS(=O)(=O)Cc1ccccc1)NNc1ccccc1 | – | inactive: -0.31% |
| O=C(/C=C/c1ccccc1)C1C(=O)c2ccccc2C1=O | inconclusive: 3.66 µM [cytotoxic, partial curve, poor fit] | – |
| O=C(C[n+]1cccc2cc(Cl)ccc21)c1ccc(Br)cc1 | inconclusive: 29.1 µM [cytotoxic, single point] | – |
| CCN(c1ccccc1)S(=O)(=O)c1ccc(Cl)c(C(=O)NC2CCN(Cc3ccccc3)CC2)c1 | inconclusive: 29.1 µM [cytotoxic, single point] | – |
| O=[N+]([O-])c1ccc(S(=O)(=O)Nc2ccc3c(c2)OCCO3)cc1 | – | inconclusive: -6.95% |
| CC1CN(S(=O)(=O)c2cccc(C(=O)OCC(=O)Nc3ccc4c(c3)OCO4)c2)CC(C)O1 (configuration not stated) | inconclusive: 25.9 µM [cytotoxic, partial curve, poor fit] | – |
| CC(=O)N1N=C(c2ccc(NS(=O)(=O)c3ccccc3)cc2)CC1c1ccco1 (configuration not stated) | inconclusive: 20.6 µM [cytotoxic, partial curve, poor fit] | – |
| CCOC(=O)N1CCC(NC(=O)c2ccc3c(c2)N(Cc2ccc(F)cc2)CCS3)CC1 | inconclusive: 29.1 µM [cytotoxic, single point] | – |
| C[C@H](CO)N1C[C@H](C)[C@@H](CN(C)Cc2ccc(Cl)c(Cl)c2)Oc2c(NS(=O)(=O)c3cn(C)cn3)cccc2C1=O | inconclusive: 0.0116 µM [rising, full curve] | – |
| COc1ccc(CN2CCN(CCCCOc3ccc(Cl)cc3)CC2)c(OC)c1OC | inconclusive: 29.1 µM [cytotoxic, single point] | – |
| COc1cc(/C=N/NC(=O)C(=O)NCc2cccnc2)cc(OC)c1OC | inconclusive: 2.31 µM [cytotoxic, partial curve, poor fit] | – |
| Cc1ccc(-c2c(C#N)c(N)nc3c2CCCCC3)cc1 | – | inactive: -3.23% |
| CSc1ccc(Cn2c(C)c(C(=O)NCc3ccc(C(C)C)cc3)sc2=O)cc1 | active: 18.4 µM | – |
| CCOC(=O)/C(=N/Nc1ccc(Cl)cc1)Sc1nnnn1-c1ccc(C)cc1 | – | inactive: -2.14% |
| O=C(Nc1ccc(Cl)c(Cl)c1)Nc1ccc(N2CCCC2)c(S(=O)(=O)Nc2ccccc2Cl)c1 | active: 5.17 µM | – |
| COc1ccc(C(=O)Nc2ccc(Cl)cc2C(=O)NCc2ccco2)cc1 | inconclusive: 3.66 µM [cytotoxic, full curve, poor fit] | – |
| COc1ccc(Cn2c(=O)c3[nH]cnc3n(-c3ccccc3C)c2=O)cc1 | active: 16.4 µM | – |
| CCOC(=O)Cn1c(C(F)(F)F)nc2nc(Cl)c(Cl)nc21 | inconclusive: 29.1 µM [cytotoxic, single point] | – |
| COc1ccc(CNCC(O)COc2ccc(C(C)(C)c3ccccc3)cc2)cc1 (configuration not stated) | inconclusive: 29.1 µM [cytotoxic, single point] | – |

Entries of single compounds, looked up by structure. Values in the order: Potency | activity change, negative = cytotoxic
CCOC(=O)/C(=N/Nc1ccc(Cl)cc1)Sc1nnnn1-c1ccc(C)cc1 is entered as – | inactive: -2.14%
CSc1ccc(Cn2c(C)c(C(=O)NCc3ccc(C(C)C)cc3)sc2=O)cc1 is entered as active: 18.4 µM | –

The list continues:

| Compound | Potency | activity change, negative = cytotoxic |
| --- | --- | --- |
| OC(COc1ccc2ccccc2c1Br)Cn1ccnc1 (configuration not stated) | inconclusive: 29.1 µM [cytotoxic, single point] | – |
| CC(=O)c1ccc2c(c1)N(Cc1ccc3ccccc3c1)C(=O)C(C)S2 (configuration not stated) | inconclusive: 29.1 µM [cytotoxic, single point] | – |
| COC(=O)c1ccc2nc(Nc3nc4c(F)cc(F)cc4s3)sc2c1 | inconclusive: 23.1 µM [cytotoxic, single point] | – |
| CC(=O)N1c2ccccc2[C@H](C)[C@H]1C | inconclusive: 23.1 µM [rising, single point] | – |
| Cc1cccc(NC(=O)c2cc3ccccc3o2)c1 | inconclusive: 14.6 µM [cytotoxic, partial curve, poor fit] | – |
| C/C(=N\NC(=O)c1nnn(-c2nonc2N)c1-c1ccccc1)c1ccccc1O | inconclusive: 2.06 µM [cytotoxic, full curve] | – |
| O=C(/C=C/c1ccccc1)NC(=S)Nc1ccccc1C(=O)NC1CCCCC1 | – | inactive: -2.57% |
| COc1cc(CCNC(=O)c2ccc3c(c2)c(C)c(C)n3Cc2cccc(C)c2)cc(OC)c1OC | – | inactive: -13.6% |
| CCOC(=O)C1(Cc2cccc(OC)c2)CCN(Cc2cccc(OCC)c2O)CC1 | – | inactive: -23.1% |
| COCc1cccc(C2=CC(=O)C[C@H](c3ccc(OC)cc3)C2)c1 | inconclusive: 16.4 µM [cytotoxic, single point] | – |
| Cc1ccc(NC(=S)NCc2ccccc2)cc1S(=O)(=O)N1CCCCC1 | inconclusive: 29.1 µM [cytotoxic, single point] | – |
| O=C(CN1C(=O)CCC1=O)NNc1ccc2ccccc2c1 | – | inactive: 0.055% |
| COc1ccc(/C=C2\SC(=O)N(CCNC(=O)C3=COCCO3)C2=O)cc1 | active: 2.91 µM | – |
| CSCCC1NC2(C(=O)Nc3c(C)cc(Cl)cc32)[C@@H]2C(=O)N(C3CCCC3)C(=O)[C@H]12 (some centres not stated) | inconclusive: 29.1 µM [cytotoxic, single point] | – |
| CC(=O)Nc1ccc(NC(=O)CCSCCc2ccccn2)cc1 | inconclusive: 0.0461 µM [cytotoxic, full curve] | – |
| COc1ccc(S(=O)(=O)N(NC2=NS(=O)(=O)c3ccccc32)C(=O)C(C)C)cc1 | inconclusive: 14.6 µM [rising, single point] | – |
| CCn1c2ccccc2c2cc(/C=N/NC(=O)c3cc(O)cc(O)c3)ccc21 | inconclusive: 29.1 µM [rising, single point] | – |
| COC(=O)c1c(-c2ccc(Br)cc2)csc1NC(=O)Cc1ccc(OC)c(OC)c1 | inconclusive: 18.4 µM [cytotoxic, single point] | – |
| CCOC(=O)[C@]12CCCC=C1N(CCC1=CCCCC1)C(=O)[C@H](CC(=O)N1CCCC1)C2 | – | inactive: -15.8% |
| CCCCNC(=O)C[C@@H]1C[C@@]2(C(=O)OC)CCCCC=C2N(Cc2ccco2)C1=O | – | inactive: 7.5% |
| N#Cc1c(-n2ncnc2-c2cccc(Br)c2)sc2c1CCCCC2 | inconclusive: 29.1 µM [rising, single point] | – |
